Assay results published in paper PMC5670216.

Chains of the proteins cited; added tags and fusions are not shown. Residues count along the entry.
UniProt Q13296, 19-93: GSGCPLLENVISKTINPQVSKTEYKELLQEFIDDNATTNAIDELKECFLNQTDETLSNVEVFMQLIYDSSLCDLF
UniProt O75556, 19-95: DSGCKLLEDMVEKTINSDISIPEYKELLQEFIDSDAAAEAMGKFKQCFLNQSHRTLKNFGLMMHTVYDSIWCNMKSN
UniProt P02769, 25-607: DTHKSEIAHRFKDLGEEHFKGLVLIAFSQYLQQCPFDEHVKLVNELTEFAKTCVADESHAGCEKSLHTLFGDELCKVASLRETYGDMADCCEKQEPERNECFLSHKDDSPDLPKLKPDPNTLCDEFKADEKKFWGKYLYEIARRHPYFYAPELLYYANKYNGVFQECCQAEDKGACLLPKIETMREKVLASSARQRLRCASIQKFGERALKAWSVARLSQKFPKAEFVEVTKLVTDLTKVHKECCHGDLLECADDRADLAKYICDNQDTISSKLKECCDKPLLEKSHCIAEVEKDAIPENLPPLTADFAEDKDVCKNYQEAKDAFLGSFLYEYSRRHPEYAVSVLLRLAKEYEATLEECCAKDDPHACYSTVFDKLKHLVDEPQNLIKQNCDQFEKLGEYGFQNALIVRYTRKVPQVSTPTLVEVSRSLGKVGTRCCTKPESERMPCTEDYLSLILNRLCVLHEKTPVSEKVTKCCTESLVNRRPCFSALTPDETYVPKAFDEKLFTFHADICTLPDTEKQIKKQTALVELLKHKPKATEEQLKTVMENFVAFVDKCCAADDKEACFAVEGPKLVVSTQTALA

What was measured:
[1] = molecular target: Mammaglobin A (MGB1) on transfected HEK293 cells (UniProt Q13296); experiment: flow cytometry; details: 5 mM Mg2+, protein on the cell surface, label: 5' 6-FAM (unlabeled in antibody blocking), single-stranded DNA
[2] = molecular target: Mammaglobin B (MGB2) on transfected HEK293 cells (UniProt O75556); experiment: flow cytometry; details: 5 mM Mg2+, protein on the cell surface, label: 5' 6-FAM (unlabeled in antibody blocking), single-stranded DNA
[3] = molecular target: Bovine serum albumin (BSA) (bovine) (UniProt P02769); experiment: EMSA; details: no significant shift, MAMA2 likewise; EMSA: 50 mM Tris-HCl, 10 mM reduced glutathione, pH 8.0, 1 h at 37 C, 8% native PAGE; transfected-cell flow cytometry: PBS, 5 mM MgCl2, 4 C, 30 min; commercial protein; label: 5' 6-FAM (unlabeled in antibody blocking); single-stranded DNA

Sequence | binding result ([1]; 300 nM aptamer, no binding to pUC19-transfected cells, blocks anti-MGB1) | binding result [2] | binding result [3] | binding result [1] | binding result ([2]; 300 nM aptamer, no binding to pUC19-transfected cells, blocks anti-MGB2)
CATGCTTACCTATAGTGAACCCGGGACAGAACGTGCGCTTTGAGCTTTGAGAACTGACTCATAC [MAMA2] | binds | no binding | – | – | –
CATGCTTACCTATAGTGAACCCAACGTCGAACTGAATCCCGTGTCCTTTGAGAACTGACTCATAC [MAMB1] | – | – | no binding | no binding | binds

Negatives hold for the conditions tested. For some assays here: The exact form of at least one protein or probe is not confirmed. For some assays here: Where cells or extracts were used, other partners may take part.
